Measurements from “University of Dundee, Small-Polar-MMV Screening Library” (2021), ChEMBL document CHEMBL3988442.

By UniProt entry, the sequences of proteins in these tests, tags left out.
UniProt E9BF75, entry or part of it: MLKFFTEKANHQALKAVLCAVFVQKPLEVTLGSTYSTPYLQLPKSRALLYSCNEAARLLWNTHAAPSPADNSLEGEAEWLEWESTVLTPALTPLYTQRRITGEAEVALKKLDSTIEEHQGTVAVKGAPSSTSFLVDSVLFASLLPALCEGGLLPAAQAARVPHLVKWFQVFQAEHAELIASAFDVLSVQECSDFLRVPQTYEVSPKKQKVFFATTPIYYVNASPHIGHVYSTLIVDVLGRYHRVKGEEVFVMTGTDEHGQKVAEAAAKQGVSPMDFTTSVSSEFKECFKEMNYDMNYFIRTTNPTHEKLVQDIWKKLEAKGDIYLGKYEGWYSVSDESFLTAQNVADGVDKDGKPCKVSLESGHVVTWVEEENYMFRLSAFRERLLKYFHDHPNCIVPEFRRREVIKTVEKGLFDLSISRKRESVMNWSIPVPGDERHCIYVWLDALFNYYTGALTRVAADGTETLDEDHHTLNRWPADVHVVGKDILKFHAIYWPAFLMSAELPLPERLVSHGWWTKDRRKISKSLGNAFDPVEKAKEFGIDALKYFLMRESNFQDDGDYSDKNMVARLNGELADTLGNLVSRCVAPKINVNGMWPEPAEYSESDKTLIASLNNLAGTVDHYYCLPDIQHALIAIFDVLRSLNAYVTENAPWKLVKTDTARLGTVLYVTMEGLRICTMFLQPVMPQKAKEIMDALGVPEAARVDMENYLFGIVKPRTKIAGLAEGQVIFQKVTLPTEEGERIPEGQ

Results are percentages, as filed. The controls that fix the scale are not given in the record; negative values are as filed. The compounds are a random part of those screened.

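Methionyl-tRNA synthetase (putative), Leishmania donovani (UniProt E9BF75). Primary screen of methionyl-tRNA synthetase; the read-out is not stated. The test concentration is not given. The values are filed as inhibition. About 68,000 compounds were tested under these conditions; 0.035% (about 24) showed 50% or more at least once.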

With c1cnn(CC2CN(Cc3csc(C4CCCCC4)n3)CCO2)c1 (stereo not drawn) the screen gave 13.13%.
With O=C(c1cc(Cl)c2c(c1)OCO2)N1CCN(c2cnccn2)CC1 the screen gave 5.177%.
With COc1cccc(N2CCN(C(=O)C(OC)c3ccccc3)CC2=O)c1 (stereo not drawn) the screen gave 6.789%.
With Cc1ccc(CC(=O)NCC(O)c2cccc(C(F)(F)F)c2)cn1 (stereo not drawn) the screen gave 10.53%.
With CC1CN(C)CCN1CC(=O)NCCOc1cccc(F)c1 (stereo not drawn) the screen gave 18.73%.
With OC1CCN(Cc2ccc(CNc3ccc(Cl)cn3)cc2)CC1 the screen gave 13.86%.
With O=C([C@@H]1COC[C@H]2CN(C3CCOCC3)C[C@H]21)N1CCCO1 the screen gave 10.1%.
With CC(NC(=O)N1CCCN(C)CC1)c1ccc2c(c1)OCCO2 (stereo not drawn) the screen gave 13.73%.
With Cc1cc(CSCc2csc(CS(C)(=O)=O)n2)no1 the screen gave 17.13%.
With CCN(CC)c1ccc(CNC(=O)c2cccc(C)n2)cn1 the screen gave -4.749%.
With Cc1cc(CC(=O)NCC(O)COc2ccc(F)c(F)c2)n[nH]1 (stereo not drawn) the screen gave 3.957%.
With CN(C)C(=O)[C@H]1CC[C@@H]2[C@@H](CCN2C(=O)N(C)C)O1 the screen gave 8.333%.
With COc1ccc(C(C)CCNC2CCN(c3ccccn3)CC2)cc1 (stereo not drawn) the screen gave 5.836%.
With Cc1ccc(N2CCCC(NCc3nnc4n3CCCC4)C2=O)cc1 (stereo not drawn) the screen gave 11.58%.
With O=C(CNC(=O)N1CCN(c2cccc(Cl)c2)CC1)Nc1ccccn1 the screen gave 12.33%.
With COc1ncccc1CNC(=O)N(Cc1ccccc1F)C1CC1 the screen gave 15.72%.
With Cc1ccccc1OCCN1CCCC1CS(N)(=O)=O (stereo not drawn) the screen gave 17%.
With OCCC1(NCc2ccc(-n3cccn3)cc2)CCOCC1 the screen gave 12.15%.
With CC(C)CN1C(=O)C2(CCCC2)NC1c1cn(C)c(=O)n(C)c1=O (stereo not drawn) the screen gave 3.495%.
With Cc1ccc(NC2CCN(C(=O)COc3ccccc3)CC2)nn1 the screen gave 18.8%.
With CNC(=O)NC(=O)C(C)N1CCCc2cc(OC)ccc2C1 (stereo not drawn) the screen gave 20.07%.
With O=C(Cc1ccc(F)cc1F)NCC(=O)Nc1ccccn1 the screen gave 6.636%.
With c1ccc(OCCCNCc2cccs2)nc1 the screen gave 10.17%.
With COc1ccc(C(=O)N2CC[C@H](CO)[C@H](O)C2)c(C)c1 the screen gave 10.37%.
With Cc1ncc2c(n1)CN(CC(O)COc1ccc(C#N)cc1)CC2 (stereo not drawn) the screen gave 18.21%.
With Cc1cccc(C(=O)NCc2ccc(S(N)(=O)=O)cc2)n1 the screen gave 10.12%.
With CSCCC(=O)N1CCCCC1CCn1cccn1 (stereo not drawn) the screen gave 11.23%.
With CCc1csc(C2CCCN(C(=O)c3ccnc(N(C)C)c3)C2)n1 (stereo not drawn) the screen gave 7.746%.
With Cc1cccc(OCCNC(=O)C(C)S(=O)(=O)c2ccccn2)c1 (stereo not drawn) the screen gave 7.692%.
With CCc1cnc(CN(C(C)=O)C2CCN(CCc3ccccn3)C2)o1 (stereo not drawn) the screen gave 10.34%.
With c1cc(CN2C[C@@H]3OCCN(CCN4CCCC4)[C@@H]3C2)ccn1 the screen gave 8.377%.
With Cn1cc(N2CCC3(CCN(S(=O)(=O)C4CC4)C3)C2=O)cn1 (stereo not drawn) the screen gave 6.276%.
With Cc1ccc(NC(=O)C(C)n2ccc(C(F)(F)F)n2)nc1 (stereo not drawn) the screen gave 20.96%.
With Cc1nc(NC(=O)N[C@H](CO)c2ccccc2)sc1C the screen gave 15.68%.
With O=C(CN1CCOC(Cn2cccn2)C1)NCCc1ccc(F)cc1 (stereo not drawn) the screen gave 6.032%.
With CCN1CCC(CC(=O)N[C@H](C(=O)O)c2cccc(F)c2F)CC1 the screen gave 8.791%.
With O=C(O)CN(Cc1ccsc1)CC1CCCO1 (stereo not drawn) the screen gave 9.756%.
With O=C(O)c1cc(-c2ccn(CC3CC3)n2)n2ccccc12 the screen gave 19.3%.
With O=C(NC1CC1)c1ccccc1NCc1cn2cccnc2n1 the screen gave 20.38%.
With CO[C@@H]1CC[C@H]2[C@H]1OCCN2S(=O)(=O)C1CC1 the screen gave 3.562%.
With O=C(NCC1CC1)c1c2c(N3CCCC3)ncnc2n2ccccc12 the screen gave -3.268%.
With O=C(c1cnccn1)N1CCCC(c2cccc(-n3ccnc3)n2)C1 (stereo not drawn) the screen gave 4.941%.
With Cc1cnn(CCCNC(=O)C2CCCCN2Cc2cccnc2)c1 (stereo not drawn) the screen gave 7.447%.
With O[C@@H]1C[C@@](CNCc2cccc(Cl)c2)(COc2cnccn2)C[C@@H]1O the screen gave 7.797%.
With O=C(O)[C@@H]1CN(Cc2nc3ncccn3n2)C[C@H]1c1cccc(F)c1 the screen gave 16.45%.
With CCCn1cc(-c2cc(C(=O)N(C)C)c3cccc(C)c3n2)cn1 the screen gave 18.41%.
With CC(NC(=O)C1=NN(C)C(=O)CC1)c1ccc(Cl)cc1Cl (stereo not drawn) the screen gave 10.34%.

Once more, the final 4:

- O[C@@H]1C[C@@](CNCc2cccc(Cl)c2)(COc2cnccn2)C[C@@H]1O : 7.797%
- O=C(O)[C@@H]1CN(Cc2nc3ncccn3n2)C[C@H]1c1cccc(F)c1 : 16.45%
- CCCn1cc(-c2cc(C(=O)N(C)C)c3cccc(C)c3n2)cn1 : 18.41%
- CC(NC(=O)C1=NN(C)C(=O)CC1)c1ccc(Cl)cc1Cl (stereo not drawn) : 10.34%